# Some of the results follow. Further columns of the screen follow, without active or inactive calls. Most of these compounds were active or inconclusive in the main read-out, so they are no random draw. The note in brackets gives the kind of curve behind each potency; many fits are weak.
# Test: qHTS Assay for Lipid Storage Modulators in Drosophila S3 Cells;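 on cell number change: cells counted by Cell Tracker Red CMTPX staining in the red channel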
# Settings: BODIPY lipid droplet fluorescence, 18-24 h; for cell number change: measured here: cell count max response, cells fed with added oleic acid
# In short: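 Drosophila S3 cells got compounds at several concentrations plus oleic acid (400 uM solution). Laser-scanning cytometry with 488 nm excitation read lipid droplets at 500-530 nm and cells at 575-640 nm. Percent activity was relative to 20 uM Triacsin C.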
# [1] = measured here: lipid fluorescence (Fed channel) AC50, cells fed with added oleic acid
# [2] = measured here: cell number channel AC50, cells fed with added oleic acid
SMILES,cell number change [%],AC50 [1],AC50 [2]
COC(=O)[C@]1(C)N[C@H](c2ccc(-c3ccc(F)cc3)cc2)[C@@H]2C(=O)N(C)C(=O)[C@@H]21,12.4,"16400 nM [rising, single point]",
COc1ccccc1Nc1nc(N)nc(CN(C)C2CCCCC2)n1,8.7,"10300 nM [rising, partial curve, poor fit]",
O=C(NCC1CCN(Cc2ccccc2F)CC1)Nc1ccccc1F,12.5,"29100 nM [falling, single point]",
COc1ccc(CCNC(=O)c2ccc3c(c2)N(Cc2ccccc2)CCS3)cc1OC,-46.6,"2060 nM [falling, full curve]","8200 nM [falling, partial curve]"
CC(C)C1CC(O)(C2(O)CCCCC2)ON1 (centres undefined),-34.7,"8200 nM [falling, partial curve]","920 nM [falling, full curve, poor fit]"
COc1ccc(-c2nc3c(n2O)CCCC3=O)cc1OC,-4.63,"6510 nM [falling, single point]",
Cc1ccc(C2C3CSCC=C3C(C#N)=C(N)C2(C#N)C#N)cc1 (centres undefined),,"130 nM [rising, full curve, poor fit]",
C=CCC(COCc1ccccc1)NS(=O)(=O)c1ccccc1Br (centres undefined),21.2,"4110 nM [rising, full curve, poor fit]",
Cc1ccc(-c2nnc(NC(=O)c3c(F)cccc3Cl)s2)cc1,11,,
Cc1ccc(-c2nn(-c3ccccc3)cc2C(=O)NC2CCC(O)CC2)cc1 (centres undefined),11.6,"130 nM [falling, full curve, poor fit]","1640 nM [falling, partial curve]"
Cc1ccc(N2C(=O)C(Cl)=C(N3CCOCC3)C2=O)cc1Cl,3.3,,"731 nM [rising, single point]"
Cc1cc(C(=O)COC(=O)Cn2c(C(F)(F)F)nc3ccccc32)c(C)n1Cc1ccco1,1.76,"73.1 nM [rising, full curve, poor fit]",
COc1ccc(S(=O)(=O)Nc2cccnc2)cc1,22.4,"7310 nM [rising, partial curve]",
O=C(Cc1cccs1)Nc1nc(-c2ccccc2)cs1,78.2,"6510 nM [rising, partial curve, poor fit]","8200 nM [rising, partial curve]"
Cc1cc(C)n2cc(COc3ccccc3)nc2n1,21.7,"5800 nM [rising, full curve]",
CCc1nc(C)cn1S(=O)(=O)c1ccc(Cl)c(Cl)c1Cl,,,"5170 nM [rising, single point]"
Fc1ccc(-c2ccnc3nc(-n4cccc4)nn23)cc1,4.44,,
COc1cc(C2C(C#N)=C(N)Oc3c2ccc2ccccc32)ccc1OCC(=O)Nc1cccc(C)c1 (centres undefined),16.7,"4110 nM [rising, single point]",
COC(=O)c1c[nH]n2c(=O)c(C(C)C)c(C)nc12,,"6510 nM [falling, single point]","4110 nM [falling, single point]"

SMILES,cell number change [%],AC50 [1],AC50 [2]
FC(F)Sc1ccc(NC(=S)NC(c2ccccc2)c2ccccc2)cc1,-31.8,"5800 nM [falling, full curve]","5170 nM [falling, full curve, poor fit]"
CC1(c2ccccc2Cl)NC(=O)N(CC(=O)N2c3ccccc3NC(=O)C2(C)C)C1=O (centres undefined),18.4,"6510 nM [rising, full curve, poor fit]",
COC(=O)c1ccccc1S(=O)(=O)N(Cc1cc2ccc(OC)cc2[nH]c1=O)CC1CCCO1 (centres undefined),-6.78,"2310 nM [rising, full curve]",
O=C(CCC1COc2ccccc2O1)NC1CCCCC1 (centres undefined),,,"651 nM [rising, full curve]"
Cc1ccc(N(CC(=O)NCc2ccc(F)cc2)C(=O)c2ccco2)cc1C,-1.9,,
CCOc1ccccc1NC(=O)COC(=O)c1c(CC)noc1C,,"1840 nM [falling, partial curve]","2910 nM [falling, partial curve]"
CC(C)(C)NC(=O)NC(=O)COC(=O)Cc1c(F)cccc1Cl,-28.5,,
COc1ccc(OC)c(C2/C(=C(/O)c3cnn(-c4ccccc4)c3C)C(=O)C(=O)N2CCN(C)C)c1 (centres undefined),-26.5,"36.6 nM [rising, full curve, poor fit]",
CCOc1ccc(-n2ccnc2SCC(=O)Nc2nnc(CC)s2)cc1,-16.5,"580 nM [falling, full curve, poor fit]",
COCCNC(=O)CN(Cc1ccccc1)C(=O)CCC(=O)Nc1nccs1,4.7,,
CCC(=O)c1ccc(OCC(=O)Nc2nc(-c3cccnc3)cs2)cc1,-11.2,,
CCCCc1nnc(NC(=O)c2cccc(S(=O)(=O)N3CCN(C)CC3)c2)s1,-12.6,,"58 nM [falling, full curve, poor fit]"
O=S(=O)(c1ccccc1)c1nc(NCc2ccccc2)sc1Cl,19.9,,"1840 nM [falling, partial curve, poor fit]"
COc1cc(-c2ccc3sc(-c4ccsc4)c(C#CCO)c3c2)cc(OC)c1OC,,"116 nM [falling, full curve, poor fit]","1160 nM [falling, single point]"
Cc1ccc(S(=O)(=O)Nc2nnc(C3CCCCC3)s2)cc1,,"6510 nM [falling, single point]","1030 nM [falling, partial curve]"
O=C(O)CCCN1C(=O)c2ccccc2Sc2ncccc21,-6.31,,
COc1ccccc1C(=O)Nc1ccc(OCc2nnc3c4ccccc4c(C)nn23)cc1,-62.1,"116 nM [rising, full curve, poor fit]","29100 nM [falling, single point]"
COc1ccccc1CNC(=O)c1c(N)n(CCCN2CCOCC2)c2nc3ccccc3nc12,-29.9,"20600 nM [falling, single point]",
O=C(c1ccc2c(=O)n3c(nc2c1)CCC3)N1CCCSC1=Nc1ccccc1,-18.2,,

# In the list so far, these have a cyano group.
SMILES,cell number change [%],AC50 [1],AC50 [2]
Cc1ccc(C2C3CSCC=C3C(C#N)=C(N)C2(C#N)C#N)cc1 (centres undefined),,"130 nM [rising, full curve, poor fit]",
COc1cc(C2C(C#N)=C(N)Oc3c2ccc2ccccc32)ccc1OCC(=O)Nc1cccc(C)c1 (centres undefined),16.7,"4110 nM [rising, single point]",

# Further results follow.

SMILES,cell number change [%],AC50 [1],AC50 [2]
O=C(c1ccc2c(=O)n3c(nc2c1)CCCCC3)N1CCN(c2ccc([N+](=O)[O-])cc2)CC1,7.22,"1840 nM [rising, partial curve]","2590 nM [rising, partial curve, poor fit]"
CC(C)Oc1ccc(C2CC(=O)N(c3cccc(C(=O)O)c3)C2=O)cc1 (centres undefined),6.95,"2060 nM [falling, full curve]",
O=C(COc1cc2oc(=O)c3c(c2cc1Cl)CCC3)NCc1ccccn1,7.25,"231 nM [falling, full curve, poor fit]","14.6 nM [falling, full curve, poor fit]"
O=C(O)CNC(=O)c1ccc(NC(=O)/C(=C/c2cccc([N+](=O)[O-])c2)NC(=O)c2ccco2)cc1,-9.12,"731 nM [rising, full curve, poor fit]",
N#CC1=C(S)N(c2ccc(F)cc2)C(c2cccs2)NC1=O (centres undefined),-19.4,"5.17 nM [falling, full curve, poor fit]","3660 nM [falling, single point]"
CC(=O)N/N=C(\C)c1ccc2c(c1)OCCO2,13.1,"3660 nM [rising, full curve, poor fit]","65.1 nM [rising, full curve, poor fit]"
O=C(NCCc1csc(-c2ccc(C(F)(F)F)cc2)n1)c1cccs1,16.8,"4610 nM [rising, full curve, poor fit]",
CCOCC(=O)Nc1cc(C(=O)NCCC(C)C)ccc1Cl,6.89,,
O=C(NC(=S)Nc1nc2c(s1)CSc1ccccc1-2)c1ccccc1,-31.4,"2060 nM [rising, partial curve]","1640 nM [rising, partial curve]"
O=C(COC(=O)/C=C/c1cccc(Cl)c1Cl)Nc1ccc2[nH]c(=O)[nH]c2c1,-32.3,,"7310 nM [falling, partial curve]"
COc1ccc(-c2noc3c2-c2nc(-c4ccccc4F)sc2CC3)cc1,24,,
Cc1ccc(C)c(-n2c3nc(=O)n(C)c(=O)c-3cc3ccccc32)c1,18.8,"18400 nM [rising, single point]",
CCN(CC(=O)Nc1ccc(NC(C)=O)cc1)C(=O)c1oc2ccccc2c1C,0.879,"580 nM [falling, single point]",
CCCCOC(=O)CN1C(=O)c2ccc(C(=O)OCCCC)cc2C1=O,-95.4,"16400 nM [falling, partial curve]","20600 nM [falling, partial curve, poor fit]"
Cc1cccc(C)c1NC(=O)C(NC(=O)c1ccccn1)c1ccc([N+](=O)[O-])cc1 (centres undefined),73.2,"2060 nM [rising, full curve]","1300 nM [rising, full curve]"
COc1cc(OC)cc(C(=O)NNC(=O)CCOc2ccccc2OC)c1,-15,"130 nM [falling, full curve, poor fit]","146 nM [falling, full curve, poor fit]"
Cc1ccc(NC(=O)Nc2c(C)n(C)n(-c3ccccc3)c2=O)cc1C,33.8,"1460 nM [rising, full curve]","5800 nM [rising, full curve]"
CC1(C)Cc2nc3sc4c(=O)n(CC(=O)NCc5ccccc5)cnc4c3cc2CO1,-20.7,"146 nM [falling, full curve]",

# An excerpt of these results, bar-delimited.
SMILES | cell number change [%] | AC50 [1] | AC50 [2]
CCOCC(=O)Nc1cc(C(=O)NCCC(C)C)ccc1Cl | 6.89 |  | 
O=C(NC(=S)Nc1nc2c(s1)CSc1ccccc1-2)c1ccccc1 | -31.4 | 2060 nM [rising, partial curve] | 1640 nM [rising, partial curve]

# Source: PubChem BioAssay AID2685 (National Center for Advancing Translational Sciences (NCATS), 2010)
